From publication PMC9708603

Target: GST-14-3-3
Assay: affinity purification with mass spectrometry; KIOSS: glutathione Sepharose 4B beads coated with GST-14-3-3 (500 pmol), incubated with RIPA lysates of mouse striatal/accumbal slices for 60 min at 4 °C; slices treated with PEP-005 or carbachol, with or without GF109203X; bound proteins digested, phosphopeptides enriched on TiO2, LC-MS/MS; only the target purified

B1: Dlgap3 (protein, UniProt Q6PFD5 1-977)
chain: MRGYHGDRGSHPRPARFADQQHMDVGPAARAPYLLGSREAFSTEPRFCAPRAGLGHLSPEGPLSLSEGPSSVGPEGGPGGVGAGGGSSTFPRMYPGQGPFDTCEDCVGHPQGKGATRLPPTLLDQFEKQLPVQQDGFHTLPYQRGPAGPGPGPGSGAAPEARSESPSRIRHLVHSVQKLFAKSHSLEAPGKRDYNGPKADGRGSSGGDSYSGPGSGGTPTSHHHHHHHHHHHHQSRHGKRSKSKDRKGDGRHQTKATGWWSSDDNLDSDSGFLGGRPPGEPGGPFCLDAPDGSYRDLSFKGRSGGSEGRCLACTGMSMSLDGQSVKRSAWHTMMVSQGRDGYPGAGPGKGLLGPETKAKARTYHYLQVPQDDWGGYPTGGKDGEIPCRRMRSGSYIKAMGDEESGDSDGSPKTSPKALARRFASRRSSSVDTARINCCVPPRIHPRSSIPGYSRSLTTGQLSEEFNQQLEAVCGSVFGELESQAVDALDLPGCFRMRSHSYLRAIQAGCSQDDDCLPLLAAPASVSGRPGSSFNFRKAPPPIPPGSQAPPRISITAQSSTDSAHESFTAAEGPARRCSSADGLDGPTMGARTLELAPVPPRASPKPPTLIIKTIPGREELRSLARQRKWRPSIGVQVETISDSDTENRSRREFHSIGVQVEEDKRRARFKRSNSVTAGVQADLELEGLAGLATVATEDKALQFGRSFQRHASEPQPGPRAPTYSVFRTVHTQGQWAYREGYPLPYEPPATDGSPGPTPVPAPGPGSGRRDSWMERGSRSLPDSGRTSPCPRDGEWFIKMLRAEVEKLEHWCQQMEREAEDYELPEEILEKIRSAVGSTQLLLSQKVQQFFRLCQQSLDPTAFPVPTFQDLAGFWDLLQLSIEDVTLKFLELQQLKANSWKLLEPKEEKKVPPPIPKKPSRGRGVPVKERSLDSVDRQRQEARKRLLAAKRAASFRHSSATESADSIEIYIPEAQTRL
modifications: phosphorylated; sites not given
binding: binds

B3: Dlgap2 (protein, UniProt Q8BJ42 1-1059)
chain: MGTAQVLPGILQKHCCILPDRNTESQCTLCGEPEEEEGGDLAQPGLSFPGPAEEDIDQQYSWSPTQHFNEERYSPAPRNMKGLTGSRNQPQLCAGHTCGLSPPDDCEHPHDHMHHGSDVRQPYLLSPAESCPMDHHRCSPRSSVHSECMMMPVMLGDHVSSSTFPRMHYSSHYDTRDDCAMSHTSTKVNRIPANLLDQFEKQLPLHRDGFHTLQYQRASAATEQRNESPGRIRHLVHSVQKLFTKSHSLEGSSKSNINGTKSDSRVDDHHQSHLSKHSKRSKSKERKPESKHKSGMSSWWSSDDNLDSDSTYRTPSVAHRHHMDHIPHCYPEALQSPFGDLSLKTSKSNNDVKCSACEGLALTPDTRYMKRSSWSTLTVSQAKEAYRKSSLNLDKPLVHPEIKPSLRPCHYLQVPQDDWGAYPTGGKEEEIPCRRMRSGSYIKAMGDEESGESDSSPKTSPTVAIRPEPLLKPIIQRPLGDHQTQSYLQAATEVPVGHSLNPSINYNSPKFRSRNQSYMRAVSTLSQASCVSQMSEAEVNGQFESVCESVFSEVESQAMDALDLPGCFRTRSHSYLRAIQAGYSQDDECIPVMTSSNMTSTIRSTAAVSYTNYKKTPPPVPPRTTSKPLISVTAQSSTESTQDAYQDSRAQRMSPWPQDSRGGLYNSMDSLDSNKAMNLALETAAAQRHAADTQSSSTRSIDKAVLASKAEELLKSRCSSIGVQDSEFPDHQPYPRSDVETATDSDTESRGLREYHSVGVQVEDEKRHGRFKRSNSVTAAVQADLELEGFPGHVSMEDKGLQFGSSFQRHSEPSTPTQYGALRTVRTQGLFSYREDYRTQVDTSTLPPPDPWLEPSLDTVETGRMSPCRRDGSWFLKLLHTETKRMEGWCKEMEREAEENDLLEDILGKIRSAVGSAQLLMSQKFQQFYWLCQQNMDPSAMPRPTSQDLAGYWDMLQLSVEDVSMKFDELHQLKLNDWKIIESPERKEERKIPPPIPKKPPKGKFPITREKSLDLPDRQRQEARRRLMAAKRAASFRQNSATERADSIEIYIPEAQTRL
modifications: phosphorylated; sites not given
binding: binds

B4: Dlgap1 (protein, UniProt Q9D415 1-992)
chain: MKGLSGSRSHHHGITCEAACDSLSHHSDHKPYLLSPVDHHPADHPYYTQRNSFQAECVGPFSDPLASSTFPRRHYTSQQELKDESALVPRTLATKANRLPTNLLDQFERQLPLSRDGYHTLQYKRTAVEHRSDSPGRIRHLVHSVQKLFTKSHSLEGPSKGSVNGGKASPDESQTLRYGKRSKSKERRSESKARSNASNASPTSPSWWSSDDNLDGDMCLYHTPSGVMTMGRCPDRSASQYFMEAYNTISEQAVKASRSNNDIKCSTCANLPVTLDAPLLKKSAWSSTLTVSRAREVYQKASVNMDQAMVKSEACQQERSCQYLQVPQDEWSGYTPRGKDDEIPCRRMRSGSYIKAMGDEDSGDSDTSPKPSPKVAARRESYLKATQPSLTELTTLKISNEHSPKLQIRSHSYLRAVSEVSINRSLDSLDPAGLLTSPKFRSRNESYMRAMSTISQVSEMEVNGQFESVCESVFSELESQAVEALDLPLPGCFRMRSHSYVRAIEKGCSQDDECVSLRSSSPPRTTTTVRTIQSSTGVIKLSSAVEVSSCITTYKKTPPPVPPRTTTKPFISITAQSSTESAQDAYMDGQGQRGDMISQSGLSNSTESLDSMKALTAAIEAANAQIHGPASQHMGSNAAAVTTTTTIATVTTEDRKKDFKKNRCLSIGIQVDDAEEPEKMAESKTSNKFQSVGVQVEEEKCFRRFTRSNSVTTAVQADLDFHDNLENSLESIEDNSCPGPMARQFSRDASTSTVSIQGSGNHYHACAADDDFDTDFDPSILPPPDPWIDSITEDPLEAVQRSVCHRDGHWFLKLLQAERDRMEGWCKLMEREERENNLPEDILGKIRTAVGSAQLLMAQKFYQFRELCEENLNPNAHPRPTSQDLAGFWDMLQLSIENISMKFDELHQLKANNWKQMDPLDKKERRAPPPVPKKPAKGPAPLIRERSLESSQRQEARKRLMAAKRAASVRQNSATESAESIEIYIPEAQTRL
modifications: phosphorylated; sites not given
binding: binds

Further lines, results first:

binding: binds
B2: phospho-β-PIX (T76) (protein, UniProt Q9ES28-8 1-705)
chain: MTDNTNSQLVVRAKFNFQQTNEDELSFSKGDVIHVTRVEEGGWWEGTHNGRTGWFPSNYVREIKPSEKPVSPKSGTLKSPPKGFDTTAINKSYYNVVLQNILETEHEYSKELQSVLSTYLRPLQTSDKLSSANTSYLMGNLEEISSFQQVLVQSLEECTKSPEAQQRVGGCFLSLMPQMRTLYLAYCANHPSAVSVLTEHSEDLGEFMETKGASSPGILVLTTGLSKPFMRLDKYPTLLKELERHMEDYHPDRQDIQKSMTAFKNLSAQCQEVRKRKELELQILTEPIRSWEGDDIKTLGSVTYMSQVTIQCAGSEEKNERYLLLFPNLLLMLSASPRMSGFIYQGKLPTTGMTITKLEDSENHRNAFEISGSMIERILVSCTSQQDLHEWVEHLQKQTKVTSVSNPTIKPHSVPSHTLPSHPLTPSSKHADSKPVALTPAYHTLPHPSHHGTPHTTISWGPLEPPKTPKPWSLSCLRPAPPLRPSAALCYKEDLSKSPKTMKKLLPKRKPERKPSDEEFAVRKSTAALEEDAQILKVIEAYCTSAKTRQTLNSTWQGTDLMHNHVLADDDQSSLDSLGRRSSLSRLEPSDLSEDSEYDSIWTAHSYRMGSASRSRKESAPQVLLPEEEKIIVEETKSNGQTVIEEKSLVDTVYALKDEVQELRQDNKKMKKSLEEEQRARKDLEKLVRKVLKNMNDPAWDETNL
modifications: phosphothreonine at T76

binding: binds
B5: Rims1 (protein, UniProt Q99NE5 1-1463)
chain: MSSAVGPRGPRPPTVPPPMQELPDLSHLTEEERNIIMAVMDRQKEEEEKEEAMLKCVVRDMAKPAACKTPRNAESQPHQPPLNIFRCVCVPRKPSSEEGGPDRNWRLHQQFESYKEQVRKIGEEARRYQGEHKDDAPTCGICHKTKFADGCGHLCSYCRTKFCARCGGRVSLRSNNEDKVVMWVCNLCRKQQEILTKSGAWFFGSGPQQPSQDGTLSDTATGAGSEVPREKKARLQERSRSQTPLSTAAVSSQDTASHGAPLDRNKGAEPSQQALGPEQKQASRSRSEPPRERKKAPGLSEQNGKGGQKSERKRVPKSVVQPGEGTADERERKERRETRRLEKGRSQDYPDRLEKREDGRVAEDEKQRKEEEGVSTPEYTSCEDVELESESVSEKGDLDYWLDPATWHSRETSPISSHPVTWQPSKEGDRLIGRVILNKRTTMPKESGALLGLKVVGGKMTDLGRLGAFITKVKKGSLADVVGHLRAGDEVLEWNGKPLPGATNEEVYNIILESKSEPQVEIIVSRPIGDIPRIPESSHPPLESSSSSFESQKMERPSISVISPTSPGALKDAPQVLPGQLSVKLWYDKVGHQLIVNVLQATDLPPRVDGRPRNPYVKMYFLPDRSDKSKRRTKTVKKLLEPKWNQTFVYSHVHRRDFRERMLEITVWDQPRVQDEESEFLGEILIELETALLDDEPHWYKLQTHDESSLPLPQPSPFMPRRHIHGESSSKKLQRSQRISDSDISDYEVDDGIGVVPPVGYRASARESKATTLTVPEQQRTTHHRSRSVSPHRGDDQGRPRSRLPNVPLQRSLDEIHPTRRSRSPTRHHDASRSLADHRSRHAESQYSSEPDSELLMLPRAKRGRSAECLHMTSELQPSLDRARSASTNCLRPDTSLHSPERERGRWSPSLARRRPASPRIQIQHASPENDRHSRKSERSSIQKQSRKGTASDADRVLPPCLSRRGYAIPRATDQPVIRGKHTTRSRSSEHSSIRTLCSMHHLAPGGSAPPSPLLTRTHRQGSPTQSPPADTSFGSRRGRQLPQVPVRSGSIEQASLVVEERTRQMKMKVHRFKQTTGSGSSQELDHEQYSKYNIHKDQYRSCDNASAKSSDSDVSDVSAISRASSTSRLSSTSFMSEQSERPRGRISSFTPKMQGRRMGTSGRAIIKSTSVSGEIYTLEHNDGSQSDTAVGTVGAGGKKRRSSLSAKVVAIVSRRSRSTSQLSQTESGHKKLKSTIQRSTETGMAAEMRKMVRQPSRESTDGSINSYSSEGNLIFPGVRVGPDSQFSDFLDGLGPAQLVGRQTLATPAMGDIQIGMEDKKGQLEVEVIRARSLTQKPGSKSTPAPYVKVYLLENGACIAKKKTRIARKTLDPLYQQSLVFDESPQGKVLQVIVWGDYGRMDHKCFMGVAQILLEELDLSSMVIGWYKLFPPSSLVDPTLTPLTRRASQSSLESSSGPPCIRS
modifications: phosphorylated; sites not given

Results are given in words; binding and its absence hold for the method and conditions named. Binding seen in cells or lysates may run through a third protein. Here binding means that the protein was enriched with, or labelled near, the bait; the list need not be complete. One block for each binder: values may come before it.
